From patent US12428442B2, “Compounds, compositions and methods for synthesis” (WAVE LIFE SCIENCES LTD., priority 2017, dated 2025) come the findings set out here.

The data set can be described thus: Use of chiral auxiliaries / phosphoramidite monomers in oligonucleotide synthesis (SOCICS or DPSE cycle), analysed by RP-HPLC/UPLC (Table 7). As to conditions: dC dimer; cycle SOSICS; activator CMPT.

Structures are written as SMILES.

In the case of `C[C@@](O)(C1CCC1)[C@@H]1CCCN1` [WV-CA-225], the “Dimer Conv. %” value was 77.3%, the “Dimer HPLC Area % dC” value is 12.71%, the “Dimer HPLC Area % dCC (PO)” value is reported as 1.78% and the “Dimer HPLC Area % dCC (Rp)” value is listed as 1.48%. For the same compound, the “Dimer HPLC Area % dCC (Sp)” value turned out to be 81.99%, the “Dimer Rp/Sp” value was “Sp” and the Dimer d.r. is 98.22.
